Some entries share one result that the patent states for a list of compounds.
Experiments:
Plasmopara viticola = experiment: Preventive foliar spray test on potted grape (variety Berry A) inoculated with Plasmopara viticola zoosporangia (Test Examples 1-3); assay type: in vivo; settings: foliar spray before inoculation, 1 day at 23° C. high humidity then 6 days in green house
Phytophthora infestans = assay type: in vivo; settings: tomato (Ponterosa), flowable diluted to 500 ppm, foliar spray before inoculation, 1 day at 23° C. high humidity then 4 days in green house

Row | Structure (SMILES) | lesion area on plants in the treatment district relative to the lesion area of a non-treatment district (Plasmopara viticola; flowable diluted to 200 ppm) | lesion area on plants in the treatment district relative to the lesion area of a non-treatment district (Phytophthora infestans) | other results
1 | COc1ccc(CCNC(=O)C(=COCF)c2ccc(C)cc2)cc1OC [Compound 1004, N-[2-(3,4-dimethoxyphenyl)ethyl]-3-fluoromethoxy-2-(4-methylphenyl)acrylamide] | not more than 10% | not more than 10% | –
2 | COc1ccc(CCNC(=O)C(=COC(F)F)c2ccc(C)cc2)cc1OC [Compound 1005, N-[2-(3,4-dimethoxyphenyl)ethyl]-3-difluoromethoxy-2-(4-methylphenyl)acrylamide] | not more than 10% | not more than 10% | –
3 | COc1ccc(CCNC(=O)C(=COCF)c2ccc(Cl)cc2)cc1OC [Compound 1016, N-[2-(3,4-dimethoxyphenyl)ethyl]-3-fluoromethoxy-2-(4-chlorophenyl)acrylamide] | not more than 10% | not more than 10% | –
4 | COc1ccc(CCNC(=O)C(=COC(F)F)c2ccc(Cl)cc2)cc1OC [Compound 1017, N-[2-(3,4-dimethoxyphenyl)ethyl]-3-difluoromethoxy-2-(4-chlorophenyl)acrylamide] | not more than 10% | not more than 10% | –
5 | COc1ccc(CCNC(=O)C(=COC(F)F)c2ccc(Br)cc2)cc1OC [Compound 1020, 2-(4-bromophenyl)-3-difluoromethoxy-N-[2-(3,4-dimethoxyphenyl)ethyl]acrylamide] | not more than 10% | not more than 10% | –
6 | COc1ccc(C(=COC(F)F)C(=O)NCCc2ccc(OC)c(OC)c2)cc1 [Compound 1023, 3-difluoromethoxy-N-[2-(3,4-dimethoxyphenyl)ethyl]-2-(4-methoxyphenyl)acrylamide] | not more than 10% | not more than 10% | –
7 | COc1ccc(CCNC(=O)C(=COC(F)F)c2ccc(SC)cc2)cc1OC [Compound 1026, 3-difluoromethoxy-N-[2-(3,4-dimethoxyphenyl)ethyl]-2-(4-methylthiophenyl)acrylamide] | not more than 10% | not more than 10% | –
8 | COc1ccc(CCNC(=O)C(=COCF)c2cccc(C)c2)cc1OC [Compound 1034, N-[2-(3,4-dimethoxyphenyl)ethyl]-3-fluoromethoxy-2-(3-methylphenyl)acrylamide] | – | not more than 10% | –
9 | COc1ccc(CCNC(=O)C(=COC(F)F)c2ccc(Cl)c(Cl)c2)cc1OC [Compound 1065, 2-(3,4-dichlorophenyl)-3-difluoromethoxy-N-[2-(3,4-dimethoxyphenyl)ethyl]acrylamide] | not more than 10% | not more than 10% | –
10 | COc1ccc(CCNC(=O)C(=COCF)c2ccc3c(c2)CCCC3)cc1OC [Compound 1103, N-[2-(3,4-dimethoxyphenyl)ethyl]-3-fluoromethoxy-2-(5,6,7,8-tetrahydronaphthalen-2-yl)acrylamide] | not more than 10% | not more than 10% | –
11 | COc1ccc(CCNC(=O)C(=COC(F)F)c2ccc3c(c2)CCCC3)cc1OC [Compound 1104, 3-difluoromethoxy-N-[2-(3,4-dimethoxyphenyl)ethyl]-2-(5,6,7,8-tetrahydronaphthalen-2-yl)acrylamide] | not more than 10% | not more than 10% | –
12 | COc1ccc(CCNC(=O)C(=COC(F)F)c2ccc3c(c2)CCC3)cc1OC [Compound 1122, 3-difluoromethoxy-N-[2-(3,4-dimethoxyphenyl)ethyl]-2-(indan-5-yl)acrylamide] | – | not more than 10% | –
13 | COc1ccc(CCNC(=S)C(=COCF)c2ccc3c(c2)CCCC3)cc1OC [Compound 1160, N-[2-(3,4-dimethoxyphenyl)ethyl]-3-fluoromethoxy-2-(5,6,7,8-tetrahydronaphthalen-2-yl)acrylthioamide] | not more than 10% | not more than 10% | –
14 | C#CCOC=C(C(=O)NCCc1ccc(OC)c(OC)c1)c1ccc(Cl)cc1 [Compound 1185, N-[2-(3,4-dimethoxyphenyl)ethyl]-3-(2-propynyloxy)-2-(4-chlorophenyl)acrylamide] | – | not more than 10% | –
15 | C=CCOc1ccc(CCNC(=O)C(=COC(F)F)c2ccc3c(c2)CCCC3)cc1OC [Compound 1266, N-[2-(4-allyloxy-3-methoxyphenyl)ethyl]-3-difluoromethoxy-2-(5,6,7,8-tetrahydronaphthalen-2-yl)acrylamide] | not more than 10% | – | –
16 | CC#CCOc1ccc(CCNC(=O)C(=COC(F)F)c2ccc3c(c2)CCCC3)cc1OC [Compound 1269, N-[2-{4-(2-butynyloxy)-3-methoxyphenyl}ethyl]-3-difluoromethoxy-2-(5,6,7,8-tetrahydronaphthalen-2-yl)acrylamide] | – | not more than 10% | –
17 | COc1cc(CCNC(=O)C(=COC(F)F)c2ccc(C)cc2)ccc1OCC1CC1 [Compound 1271, N-[2-(4-cyclopropylmethoxy-3-methoxyphenyl)ethyl]-3-difluoromethoxy-2-(4-methylphenyl)acrylamide] | not more than 10% | – | –
18 | C#CCOc1cc(CCNC(=O)C(=COC(F)F)c2ccc3c(c2)CCCC3)ccc1OC [Compound 1299, 3-difluoromethoxy-N-[2-{4-methoxy-3-(2-propynyloxy)phenyl}ethyl]-2-(5,6,7,8-tetrahydronaphthalen-2-yl)acrylamide] | – | not more than 10% | –
19 | COc1ccc(CCNC(=O)C(=COC(F)F)c2ccc3c(c2)CCCC3)cc1OCC#N [Compound 1305, N-[2-(3-cyanomethoxy-4-methoxyphenyl)ethyl]-3-difluoromethoxy-2-(5,6,7,8-tetrahydronaphthalen-2-yl)acrylamide] | not more than 10% | – | –
20 | C#CCOc1ccc(CCNC(=O)C(=COC(F)F)c2ccc(Cl)cc2)cc1OC [Compound 1355, 3-difluoromethoxy-N-[2-{3-methoxy-4-(2-propynyloxy)phenyl}ethyl]-2-(4-chlorophenyl)acrylamide] | – | – | lesion area on plants in the treatment district relative to the lesion area of a non-treatment district (Plasmopara viticola; flowable diluted to 50 ppm): not more than 10%
21 | C#CCOc1ccc(CCNC(=O)C(=COC(F)F)c2ccc(C(F)(F)F)cc2)cc1OC [Compound 1357, 3-difluoromethoxy-N-[2-{3-methoxy-4-(2-propynyloxy)phenyl}ethyl]-2-(4-trifluoromethylphenyl)acrylamide] | – | – | lesion area on plants in the treatment district relative to the lesion area of a non-treatment district (Plasmopara viticola; flowable diluted to 12.5 ppm): not more than 10%
22 | C#CCOC=C(C(=O)NCCc1ccc(OCC#C)c(OC)c1)c1ccc(C)cc1 [Compound 1364, N-[2-{3-methoxy-4-(2-propynyloxy)phenyl}ethyl]-3-(2-propynyloxy)-2-(4-methylphenyl)acrylamide] | – | – | lesion area on plants in the treatment district relative to the lesion area of a non-treatment district (Plasmopara viticola; flowable diluted to 12.5 ppm): not more than 10%
23 | COc1cc(CCNC(=O)C(=COC(F)F)c2ccc3c(c2)CCCC3)ccc1O [Compound 1371, 3-difluoromethoxy-N-[2-(4-hydroxy-3-methoxyphenyl)ethyl]-2-(5,6,7,8-tetrahydronaphthalen-2-yl)acrylamide] | not more than 10% | – | –
24 | COc1ccc(CCNC(=O)C(=COC(F)F)c2ccc3c(c2)CCCC3)cc1Cl [Compound 1447, N-[2-(3-chloro-4-methoxyphenyl)ethyl]-3-difluoromethoxy-2-(5,6,7,8-tetrahydronaphthalen-2-yl)acrylamide] | – | – | lesion area on plants in the treatment district relative to the lesion area of a non-treatment district (Plasmopara viticola; flowable diluted to 50 ppm): not more than 10%
25 | COc1ccc(CCNC(=O)C(=COC(F)F)c2ccc3c(c2)CCCC3)cc1C [Compound 1448, 3-difluoromethoxy-N-[2-(4-methoxy-3-methylphenyl)ethyl]-2-(5,6,7,8-tetrahydronaphthalen-2-yl)acrylamide] | – | not more than 10% | –
26 | C#CCOc1ccc(CC(C)NC(=O)C(=COC(F)F)c2ccc(C)cc2)cc1OC (stereo not drawn) [Compound 1465, 3-difluoromethoxy-N-[2-(3-methoxy-4-(2-propynyloxy)phenyl)-1-methylethyl]-2-(4-methylphenyl)acrylamide] | – | not more than 10% | –
27 | COc1ccc(CCCNC(=O)C(=COC(F)F)c2ccc(C)cc2)cc1OC [Compound 1476, 3-difluoromethoxy-N-[3-(3,4-dimethoxyphenyl)propyl]-2-(4-methylphenyl)acrylamide] | – | not more than 10% | –
28 | C#CCOc1ccc(CCNC(=O)C(=COC(F)F)c2ccc3ccccc3c2)cc1OC [Compound 2202, 3-difluoromethoxy-N-[2-{3-methoxy-4-(2-propynyloxy)phenyl}ethyl]-2-(naphthalen-2-yl)acrylamide] | – | – | lesion area on plants in the treatment district relative to the lesion area of a non-treatment district (Plasmopara viticola; flowable diluted to 12.5 ppm): not more than 10%
